Earlier results, collected in patent US12186290B2, “Methods for the treatment of glioblastoma multiforme” (priority 2017, dated 2025).
At least one structure is not confirmed: it was looked up by name or label, or the drawing left a doubt.

System: newly diagnosed GBM
Conditions: cited from earlier work

For `Cn1nnc2c(C(N)=O)ncn2c1=O` [TMZ, temozolomide], the “median survival from diagnosis” value (GBM patients, surgery, radiation therapy and adjuvant TMZ-based chemotherapy) is given as 14.6 months and the survival benefit (addition of TMZ to RT vs RT alone, newly diagnosed GBM) is given as “significant survival benefit”.
